# Some of the results follow.
# B1: Pwp6 (Candida glabrata) (protein)
# chain: MGSSHHHHHHSSGLVPRGSHMASANLPKLTNICQIPDNVKKTSGFKGEIRRIGLFPPGGDYTYLLKFPSTGSTASDTISLTTKPQLSTSGWFPSLFGHTYFIKADLLVYMVAYFVPTETGEYTFKLVNSDDAAVMYVGNPSAFPCGSIDTWPEPRKEDINVCDKISASTKLYMEKGLAYPVRLVWYNGGGDGQFNAQFIDPSGTTHTDWNGYVWQYDACTDCDYK
# Biological target: Neu5Gc(b2-6)Gal(b1-4)GlcNAc
# Test: glycan array binding signal (z-score within array); higher = stronger binding
# Settings: glycan notation: IUPAC condensed, linker removed
# Method in brief: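 The binding signal is a Z-score computed within each array and averaged over linkers. Arrays of the same protein sequence at different concentrations or buffers were also averaged together. Data originate from 3228 arrays in the Consortium for Functional Glycomics database, kept only where the protein sequence was available.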
binder,measurement,value
B1,glycan array binding signal (z-score),-0.499
